Assay results reported in PubChem BioAssay AID2417 (National Center for Advancing Translational Sciences (NCATS), 2010).
The whole screen tested about 140,000 compounds, of which about 4,300 (3.1%) were called active. The shares of active, inactive and inconclusive entries below differ from those in the screen.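 How the source made its calls: active means readout at or below -70, meaning at least 70% loss of cells showing the perinucleolar compartment, a nuclear body marking cancer cells; inconclusive means readout between -30 and a set limit; inactive means the rest.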

Assay: High Content Assay for Compounds that inhibit the Assembly of the Perinucleolar Compartment;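 further: plate controls were DMSO wells for no effect and camptothecin positive control wells for full effect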
Conditions: PC3M PTB-GFP, PNC prevalence imaging, 16 h; at 10 µM; stronger effect = lower value
In short: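 PC3M cells stably expressing PTB-GFP, 750–1000 cells/well, treated 16 h at 37 °C with compound (23 nl of library stock), in duplicate. After paraformaldehyde fixation and Hoechst stain, imaged at 20x; PNC prevalence scored by image analysis.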

| SMILES | activity change (PNC), negative = inhibition |
| --- | --- |
| COc1ccc(/C=C2\CCCc3c2nc2ccccc2c3C(=O)OCC(=O)c2c(N)n(C)c(=O)n(C)c2=O)cc1 | inactive: 12.5% |
| COc1ccc(C(=O)C(OC(=O)c2ccccc2Cl)c2ccccc2)cc1 (stereo not drawn) | inconclusive: -34.4% |
| CCCC(c1nnnn1Cc1ccco1)N1CCN(C2CCCC2)CC1 (stereo not drawn) | inactive: 4.78% |
| N#CC1=C(N)OC2=C(CC/C2=C\c2ccccc2Cl)C1c1ccccc1Cl (stereo not drawn) | inactive: 7.63% |
| COc1ccc(C(=O)O/N=C(\N)c2ccccc2)c(OC)c1 | inactive: 2.67% |
| O=[N+]([O-])c1ccc(Sc2ccccc2)nc1 | inactive: 3.48% |
| CN(C)c1cccc(C(=O)OCC(=O)Nc2nccs2)c1 | inconclusive: -78.9% |
| O=C(c1cnc2n(c1=O)CCS2)N(c1ccccc1)C1CCCCC1 | active: -106% |
| COc1cccc(NC(=O)C(Cc2ccccc2)NC(=O)C2CCC(C)CC2)c1 (stereo not drawn) | active: -119% |
| O=C(NCc1cccs1)C1CC(=O)N(C2CCCC2)C1 (stereo not drawn) | inconclusive: -52.8% |
| COc1ccc(C(=O)Nc2c(C)ccc3nsnc23)cc1[N+](=O)[O-] | inconclusive: -36.5% |
| CCOc1ccc(Cc2c(Cl)nc(SC)nc2N(C)C)cc1 | inactive: 5.59% |
| Cc1ccc(/C=N/NC(=O)c2cccc(S(=O)(=O)Nc3ccccc3Cl)c2)o1 | inactive: -11.6% |
| Cc1occc1C(=O)N/N=C/C1=C(N2CCOCC2)C(=C\c2ccc(Cl)cc2Cl)/CC1 | inactive: -14.4% |
| O=[N+]([O-])c1cc(-c2nc(-c3ccncc3)no2)ccc1Cl | inconclusive: -44.9% |
| CCS(=O)(=O)Nc1cccc(-c2nc3cccnc3s2)c1C | inconclusive: -52.1% |
| O=C(CCCO)N/N=C/c1cc(Br)ccc1O | inconclusive: -63.7% |
| COc1ccc(CCNC(=O)CC2SC(=NCCC(C)C)NC2=O)cc1OC (stereo not drawn) | inconclusive: -78.2% |
| O=c1[nH]c2ccc(Cl)cc2c(-c2ccccc2)c1SC(=S)N1CCCCC1 | inactive: 45.6% |
| Cc1ccccc1Cn1nnc(-c2ccc3c(c2)OCO3)n1 | inconclusive: -62.4% |

| SMILES | activity change (PNC), negative = inhibition |
| --- | --- |
| CC(C)N(Cc1nc(-c2ccccc2)no1)C(=O)CN(C)S(=O)(=O)c1ccccc1 | inconclusive: -61.8% |
| COc1ccc(C(=S)N2CCN(C)CC2)cc1Br | inactive: 21.6% |
| CCOC(=O)C1=C(C)N(C)C(=S)NC1c1ccccc1 (stereo not drawn) | inactive: -20.8% |
| COCCNC(=O)CSc1nc2ccccc2c(=O)n1CCCC(=O)NCc1ccccc1 | inconclusive: -37.3% |
| COc1ccc([N+](=O)[O-])cc1COc1cc(C)cc2oc(=O)cc(-c3ccccc3)c12 | inconclusive: -36.1% |
| CC(=O)c1ccc(N2CCN(C(=S)Nc3ccccc3)CC2)cc1 | inconclusive: -68.4% |
| c1ccc(N2CCN(c3ccccc3)C2c2ccncc2)cc1 | inconclusive: -48.7% |
| COCCSc1nc2c(c(=O)[nH]c(=O)n2C)n1Cc1cccc(C)c1 | inactive: -0.778% |
| Cc1ccccc1-c1cc(C(=O)Nc2nc3c(s2)CCCC3)c2ccccc2n1 | active: -100% |
| Cc1ccc(NC2=NCCCCC2)cc1C | inconclusive: -55.2% |
| CCN(CC)S(=O)(=O)c1ccc(C)c(NC(=S)NNC(=O)C2CC2)c1 | inconclusive: -36.7% |
| O=C(OC1CCCCC1)c1ccc(NC(=O)c2ccco2)cc1 | inconclusive: -31.7% |
| O=C(CSc1nnc(COc2cccc3cccnc23)o1)N1CCc2ccccc21 | inconclusive: -57.2% |
| CCOc1ccc2nc(NC(=O)CSc3nnnn3C3CCCCC3)sc2c1 | inactive: 28.5% |
| CCOC(=O)c1sc(=S)n(-c2ccc(F)c(F)c2)c1N | inactive: -14.3% |
| Oc1c(Cl)cc(Cl)cc1C=Nc1ccccc1N1CCCC1 | inconclusive: -35.8% |
| CC(C)[C@H](NS(=O)(=O)c1ccc2c(c1)OCCO2)C(=O)OCC(=O)Nc1ccccc1 | inconclusive: -44.5% |
| Cc1cccc(NC(=O)c2cc3c([nH]c4ccccc43)c(C)n2)c1C | inactive: 21% |
| CCc1cc2c(=O)n(-c3ccc(C)cc3)cnc2s1 | inconclusive: -36% |
| COc1cc(OC)cc(-c2cc3nc(C)cc(N4CCN(C(=O)c5ccco5)CC4)n3n2)c1 | inactive: -17.2% |

Shown tab-delimited: part of the list above
SMILES	activity change (PNC), negative = inhibition
CCOc1ccc(Cc2c(Cl)nc(SC)nc2N(C)C)cc1	inactive: 5.59%
CCOC(=O)C1=C(C)N(C)C(=S)NC1c1ccccc1 (stereo not drawn)	inactive: -20.8%
O=C(OC1CCCCC1)c1ccc(NC(=O)c2ccco2)cc1	inconclusive: -31.7%

The list goes on:

| SMILES | activity change (PNC), negative = inhibition |
| --- | --- |
| CC(C)(C)c1ccc(OC(=O)c2ccc3nsnc3c2)cc1 | inconclusive: -62% |
| CC(C)N1C[C@@]23C=C[C@@H](O2)C(C(=O)OCc2ccccc2)[C@H]3C1=O (stereo partly drawn) | inconclusive: -30.9% |
| Cc1cc(=O)[nH]c(SCCCOc2ccccc2Cl)n1 | inactive: 4.72% |
| COc1ccc(C(=O)n2cnnc2N)cc1 | inconclusive: -54.1% |
| CN(C)c1ccc(N2C(=O)CC(Nc3ccc(N4CCOCC4)cc3)C2=O)cc1 (stereo not drawn) | inconclusive: -36.9% |
| Cc1cc(NC(=O)CSc2nnnn2C2CCCC2)no1 | inconclusive: -70.1% |
| O=C1CCCC2=C1C(c1ccc(Cl)cc1)C1C(=O)c3ccccc3C1=N2 (stereo not drawn) | inactive: 8.38% |
| Cc1ccc(CNC(=O)COC(=O)CSc2ccc(Br)cc2C)cc1 | inconclusive: -51.7% |
| CC1Cn2c(nnc2-c2cc3ccccc3cc2O)S1 (stereo not drawn) | inconclusive: -53.7% |
| FC(F)(F)c1cc(-c2ccco2)nc(N2CCN(c3ccccc3)CC2)n1 | inconclusive: -40.7% |
| COc1ccc(Cc2nnc(SCc3c(C)noc3C)n2C2CCCCC2)cc1OC | inactive: 27.9% |
| CNC(=S)NC1CC2CCC(C1)N2Cc1ccccc1 (stereo not drawn) | inactive: -17.6% |
| COc1ccc(C)cc1S(=O)(=O)N1CCN(Cc2ccccc2)CC1 | inconclusive: -64.4% |
| CC1CCCCC1NS(=O)(=O)c1ccc(S(=O)(=O)N2CCCC2)cc1 (stereo not drawn) | inconclusive: -41.7% |
| CCCCN(CC)CCNC(=O)Cn1cnc2sc(C)c(S(=O)(=O)N3CCOCC3)c2c1=O | active: -100% |
| COC(=O)c1ccc(Cn2cnc3c(sc4nc(N5CCOCC5)c5c(c43)CCCC5)c2=O)o1 | inconclusive: -38.5% |
| CCc1c(C(=O)NNC(=S)NCc2ccccc2)csc1C | inactive: 15.6% |
| CCOc1cc(/C=N/NC(=O)C(=O)NCCCOC(C)C)cc(Br)c1O | inactive: -0.658% |
